Values from PubChem BioAssay AID1259308 (NCATS, 2017)
Purpose: 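Knock-downs that increase output of a recombinant reporter protein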 (primary screen). System: human HEK293 embryonic kidney cells stably expressing firefly luciferase (HEK-CMV-Luc2-Hygro). Reagent: single siRNA against human genes, 0.8 pmol siRNA per well. Time to read-out: 72 h. Detection: 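Luciferase light (ONE-Glo) measured on one replicate plate set and viability (CellTiter-Glo) on the other, scaled to a negative control siRNA, with robust z-scores and luciferase per cell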. Reading the numbers: total luciferase, z-score: higher = more reporter protein produced. Hit rule: 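An siRNA counts as active if its total luciferase robust z-score exceeds 3; genes with two or more such siRNAs out of three were retested with fresh siRNAs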. Meaning of the calls: active = raised luciferase; inactive = no rise.
The deposit covers about 59,000 reagents; below is a part drawn at random. About 1,510 of them (2.6%) were called active. 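Calls use total luciferase alone and ignore viability, so some active siRNAs may act by altering cell number.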 Reagents against one gene are numbered here. Not all columns of the deposit are shown.

total luciferase, z-score, by target gene and reagent
DNER (delta/notch like EGF repeat containing): #1 3.14 active; #2 0.447 inactive; #3 0.244 inactive
FAM216B (family with sequence similarity 216 member B): #1 -0.277 inactive; #2 4.12 active; #3 -0.856 inactive
TEX261 (testis expressed 261): #1 0.655 inactive; #2 -1.08 inactive; #3 -0.922 inactive
LPIN1 (lipin 1): #1 -0.346 inactive; #2 -0.107 inactive; #3 -0.678 inactive
NAE1 (NEDD8 activating enzyme E1 subunit 1): #1 -0.124 inactive; #2 -0.267 inactive; #3 -0.758 inactive
SWSAP1 (SWIM-type zinc finger 7 associated protein 1): #1 0.357 inactive; #2 3.42 active; #3 -0.171 inactive
SYF2 (SYF2 pre-mRNA splicing factor): #1 -1.3 inactive; #2 -0.691 inactive; #3 0.457 inactive
IPO8 (importin 8): #1 -0.347 inactive; #2 -1.36 inactive; #3 -0.236 inactive
RAB38 (RAB38, member RAS oncogene family): #1 0.74 inactive; #2 -2.43 inactive; #3 -0.442 inactive
ISLR2 (immunoglobulin superfamily containing leucine rich repeat 2): #1 -2.98 inactive; #2 -2.58 inactive; #3 0.439 inactive
SMAD7 (SMAD family member 7): #1 0.0065 inactive; #2 0.591 inactive; #3 -0.955 inactive
FNDC9 (fibronectin type III domain containing 9): #1 0.689 inactive; #2 0.793 inactive; #3 -0.675 inactive
MCAM (melanoma cell adhesion molecule): #1 0.616 inactive; #2 0.0622 inactive; #3 -1.29 inactive
BEX1 (brain expressed X-linked 1): #1 -0.302 inactive; #2 -0.771 inactive; #3 0.216 inactive
METAP2 (methionyl aminopeptidase 2): #1 0.449 inactive; #2 0.544 inactive; #3 -0.694 inactive
LEO1 (LEO1 component of Paf1/RNA polymerase II complex): #1 -1.52 inactive; #2 2.61 inactive; #3 -0.658 inactive

Reformatted: 8 of the entries above
target gene	reagent no.	total luciferase, z-score	Call
IPO8 (importin 8)	1	-0.347	inactive
IPO8 (importin 8)	2	-1.36	inactive
IPO8 (importin 8)	3	-0.236	inactive
RAB38 (RAB38, member RAS oncogene family)	1	0.74	inactive
RAB38 (RAB38, member RAS oncogene family)	2	-2.43	inactive
RAB38 (RAB38, member RAS oncogene family)	3	-0.442	inactive
ISLR2 (immunoglobulin superfamily containing leucine rich repeat 2)	1	-2.98	inactive
ISLR2 (immunoglobulin superfamily containing leucine rich repeat 2)	2	-2.58	inactive

Continued.
total luciferase, z-score, by target gene and reagent
SHC4 (SHC adaptor protein 4): #1 0.513 inactive; #2 -0.619 inactive; #3 1.07 inactive
MPC1: #1 1.21 inactive; #2 3.54 active; #3 1.28 inactive
IPCEF1 (interaction protein for cytohesin exchange factors 1): #1 0.997 inactive; #2 -0.218 inactive; #3 0.532 inactive
CYP4V2 (cytochrome P450 family 4 subfamily V member 2): #1 -0.634 inactive; #2 -1.43 inactive; #3 -0.592 inactive
CCDC13 (coiled-coil domain containing 13): #1 0.325 inactive; #2 -2.27 inactive; #3 1.84 inactive
ASB7 (ankyrin repeat and SOCS box containing 7): #1 0.0806 inactive; #2 0.14 inactive; #3 0.686 inactive
GK (glycerol kinase): #1 -0.157 inactive; #2 0.149 inactive; #3 1.12 inactive
FAM230A (family with sequence similarity 230 member A): #1 1.25 inactive; #2 -0.754 inactive; #3 1.69 inactive
KRT79 (keratin 79): #1 0.817 inactive; #2 0.406 inactive; #3 -0.796 inactive
